# Test results taken from the supplement of paper PMC8728848.
# Some of the results follow.
# B1: AntigenI/IIA3VP1 (Streptococcus mutans), C9E3B4 (protein)
# chain: AANEADYQAKLTAYQTELARVQKANADAKAAYEAAVAANNAANAALTAENTAIKKRNADAKADYEAKLAKYQADLAKYQKDLADYPVKLKAYEDEQASIKAALAELEKHKNEDGNLTEPSAQNLVYDLEPNANLSLTTDGKFLKASAVDDAFSKSTSKAKYDQKILQLDDLDITNLEQSNDVASSMELYGNFGDKAGWSTTVSNNSQVKWGSVLLERGQSATATYTNLQNSYYNGKKISKIVYKYTVDPKSKFQGQKVWLGIFTDPTLGVFASAYTGQVEKNTSIFIKNEFTFYDEDGKPINFDNALLSVASLNREHNSIEMAKDYSGKFVKISGSSIGEKNGMIYATDTLNFKQGEGGSRWTMYKNSQAGSGWDSSDAPNSWYGAGAIKMSGPNNYVTVGATSATNVMPVSDMPVVPGKDNTDGKKPNIWYSLNGKIRAVNVPKVTKEKPTPPVKPTAPTKPTYETEKPLKPAPVAPNYEKEPTPPTRLEHHHHHH
# Legend:
# Assay in all cases: glycan array binding signal (z-score within array); higher = stronger binding
# Conditions in all cases: glycan notation: IUPAC condensed, linker removed
# Fuc(a1-2)Gal = target: Fuc(a1-2)Gal
# Procedure, shortened: (§1)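 From the Consortium for Functional Glycomics database, 3228 arrays were curated, keeping only those whose protein sequence was available. Binding is given as a within-array Z-score averaged across arrays sharing a protein sequence and across linkers. Negative Z-scores can be read as non-binding.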
# Fuc(a1-2)Gal(b1-3)GalNAc = target: Fuc(a1-2)Gal(b1-3)GalNAc
# Procedure, shortened: as §1
# [1] = target: Fuc(a1-2)Gal(b1-3)GalNAc(a1-3)[Fuc(a1-2)]Gal(b1-4)Glc
# Procedure, shortened: as §1
# [2] = target: Fuc(a1-2)Gal(b1-3)GalNAc(a1-3)[Fuc(a1-2)]Gal(b1-4)GlcNAc
# Procedure, shortened: as §1
# [3] = target: Fuc(a1-2)Gal(b1-3)GalNAc(b1-3)Gal
# Procedure, shortened: as §1
# [4] = target: Fuc(a1-2)Gal(b1-3)GalNAc(b1-3)Gal(a1-4)Gal(b1-4)Glc
# Procedure, shortened: as §1
# [5] = target: Fuc(a1-2)Gal(b1-3)GalNAc(b1-4)[Neu5Ac(a2-3)]Gal(b1-4)Glc
# Procedure, shortened: as §1
# Fuc(a1-2)Gal(b1-3)GlcNAc = target: Fuc(a1-2)Gal(b1-3)GlcNAc
# Procedure, shortened: as §1
# [6] = target: Fuc(a1-2)Gal(b1-3)GlcNAc(b1-2)Man(a1-3)[Fuc(a1-2)Gal(b1-3)GlcNAc(b1-2)Man(a1-6)]Man(b1-4)GlcNAc(b1-4)GlcNAc
# Procedure, shortened: as §1
# [7] = target: Fuc(a1-2)Gal(b1-3)GlcNAc(b1-2)Man(a1-3)[Fuc(a1-2)Gal(b1-3)GlcNAc(b1-2)Man(a1-6)]Man(b1-4)GlcNAc(b1-4)[Fuc(a1-6)]GlcNAc
# Procedure, shortened: as §1
# [8] = target: Fuc(a1-2)Gal(b1-3)GlcNAc(b1-3)Gal(b1-4)Glc
# Procedure, shortened: as §1
# [9] = target: Fuc(a1-2)Gal(b1-3)GlcNAc(b1-3)GalNAc
# Procedure, shortened: as §1
# [10] = target: Fuc(a1-2)Gal(b1-3)GlcNAc(b1-3)[Fuc(a1-2)Gal(b1-3)GlcNAc(b1-6)]GalNAc
# Procedure, shortened: as §1
# [11] = target: Fuc(a1-2)Gal(b1-3)GlcNAc(b1-3)[Gal(b1-4)GlcNAc(b1-6)]Gal(b1-4)Glc
# Procedure, shortened: as §1
# [12] = target: Fuc(a1-2)Gal(b1-3)GlcNAc(b1-3)[Neu5Ac(a2-6)Gal(b1-4)GlcNAc(b1-6)]Gal(b1-4)Glc
# Procedure, shortened: as §1
# [13] = target: Fuc(a1-2)Gal(b1-3)GlcNAc6S
# Procedure, shortened: as §1
# [14] = target: Fuc(a1-2)Gal(b1-3)[Fuc(a1-4)]GlcNAc
# Procedure, shortened: as §1
# [15] = target: Fuc(a1-2)Gal(b1-3)[Fuc(a1-4)]GlcNAc(b1-2)Man(a1-3)[Fuc(a1-2)Gal(b1-3)[Fuc(a1-4)]GlcNAc(b1-2)Man(a1-3)]Man(b1-4)GlcNAc(b1-4)GlcNAc
# Procedure, shortened: as §1
# [16] = target: Fuc(a1-2)Gal(b1-3)[Fuc(a1-4)]GlcNAc(b1-2)Man(a1-3)[Fuc(a1-2)Gal(b1-3)[Fuc(a1-4)]GlcNAc(b1-2)Man(a1-6)]Man(b1-4)GlcNAc(b1-4)[Fuc(a1-6)]GlcNAc(b1-4)[Fuc(a1-6)]GlcNAc
# Procedure, shortened: as §1
# [17] = target: Fuc(a1-2)Gal(b1-3)[Fuc(a1-4)]GlcNAc(b1-3)[Fuc(a1-3)[Gal(b1-4)]GlcNAc(b1-6)]Gal(b1-4)Glc
# Procedure, shortened: as §1
# [18] = target: Fuc(a1-2)Gal(b1-3)[Fuc(a1-4)]GlcNAc(b1-3)[Gal(b1-4)GlcNAc(b1-6)]Gal(b1-4)Glc
# Procedure, shortened: as §1
# [19] = target: Fuc(a1-2)Gal(b1-4)Fuc(a1-3)]GlcNAc(b1-2)Man(a1-3)[Fuc(a1-2)Gal(b1-4)[Fuc(a1-3)]GlcNAc(b1-2)Man(a1-6)]Man(b1-4)GlcNAc(b1-4)GlcNAc
# Procedure, shortened: as §1
# Fuc(a1-2)Gal(b1-4)Glc = target: Fuc(a1-2)Gal(b1-4)Glc
# Procedure, shortened: as §1
# Fuc(a1-2)Gal(b1-4)Glc6S = target: Fuc(a1-2)Gal(b1-4)Glc6S
# Procedure, shortened: as §1
# Fuc(a1-2)Gal(b1-4)GlcNAc = target: Fuc(a1-2)Gal(b1-4)GlcNAc
# Procedure, shortened: as §1
# [20] = target: Fuc(a1-2)Gal(b1-4)GlcNAc(b1-2)Man
# Procedure, shortened: as §1
# [21] = target: Fuc(a1-2)Gal(b1-4)GlcNAc(b1-2)Man(a1-3)[Fuc(a1-2)Gal(b1-4)GlcNAc(b1-2)Man(a1-6)]Man(b1-4)GlcNAc(b1-4)GlcNAc
# Procedure, shortened: as §1
# [22] = target: Fuc(a1-2)Gal(b1-4)GlcNAc(b1-2)Man(a1-3)[Fuc(a1-2)Gal(b1-4)GlcNAc(b1-2)Man(a1-6)]Man(b1-4)GlcNAc(b1-4)[Fuc(a1-6)]GlcNAc
# Procedure, shortened: as §1
# [23] = target: Fuc(a1-2)Gal(b1-4)GlcNAc(b1-2)[Fuc(a1-2)Gal(b1-4)GlcNAc(b1-4)]Man(a1-3)[Fuc(a1-2)Gal(b1-4)GlcNAc(b1-2)Man(a1-6)]Man(b1-4)GlcNAc(b1-4)GlcNAc
# Procedure, shortened: as §1
# [24] = target: Fuc(a1-2)Gal(b1-4)GlcNAc(b1-3)Gal(b1-4)GlcNAc
# Procedure, shortened: as §1
# [25] = target: Fuc(a1-2)Gal(b1-4)GlcNAc(b1-3)Gal(b1-4)GlcNAc(b1-2)Man(a1-3)[Fuc(a1-2)Gal(b1-4)GlcNAc(b1-3)Gal(b1-4)GlcNAc(b1-2)Man(a1-6)]Man(b1-4)GlcNAc(b1-4)GlcNAc
# Procedure, shortened: as §1
# [26] = target: Fuc(a1-2)Gal(b1-4)GlcNAc(b1-3)Gal(b1-4)GlcNAc(b1-3)Gal(b1-4)GlcNAc
# Procedure, shortened: as §1
# [27] = target: Fuc(a1-2)Gal(b1-4)GlcNAc(b1-3)GalNAc
# Procedure, shortened: as §1
# [28] = target: Fuc(a1-2)Gal(b1-4)GlcNAc(b1-3)[Fuc(a1-2)Gal(b1-4)GlcNAc(b1-6)]GalNAc
# Procedure, shortened: as §1
# [29] = target: Fuc(a1-2)Gal(b1-4)GlcNAc(b1-3)[Fuc(a1-3)[Gal(b1-4)]GlcNAc(b1-6)]Gal(b1-4)Glc
# Procedure, shortened: as §1
# [30] = target: Fuc(a1-2)Gal(b1-4)GlcNAc(b1-6)GalNAc
# Procedure, shortened: as §1
# [31] = target: Fuc(a1-2)Gal(b1-4)GlcNAc6S
# Procedure, shortened: as §1
binder,measurement,setting,value
B1,glycan array binding signal (z-score),Fuc(a1-2)Gal,-0.141
same,glycan array binding signal (z-score),Fuc(a1-2)Gal(b1-3)GalNAc,-0.049
same,glycan array binding signal (z-score),[1],0.028
same,glycan array binding signal (z-score),[2],-1.02
same,glycan array binding signal (z-score),[3],-0.871
same,glycan array binding signal (z-score),[4],-1.54
same,glycan array binding signal (z-score),[5],-0.35
same,glycan array binding signal (z-score),Fuc(a1-2)Gal(b1-3)GlcNAc,-0.652
same,glycan array binding signal (z-score),[6],0.716
same,glycan array binding signal (z-score),[7],0.612
same,glycan array binding signal (z-score),[8],-1.26
same,glycan array binding signal (z-score),[9],0.237
same,glycan array binding signal (z-score),[10],0.422
same,glycan array binding signal (z-score),[11],-1.54
same,glycan array binding signal (z-score),[12],-1.19
same,glycan array binding signal (z-score),[13],0.457
same,glycan array binding signal (z-score),[14],0.481
same,glycan array binding signal (z-score),[15],0.421
same,glycan array binding signal (z-score),[16],0.615
same,glycan array binding signal (z-score),[17],-0.84
same,glycan array binding signal (z-score),[18],-0.77
same,glycan array binding signal (z-score),[19],4.68
same,glycan array binding signal (z-score),Fuc(a1-2)Gal(b1-4)Glc,-0.065
same,glycan array binding signal (z-score),Fuc(a1-2)Gal(b1-4)Glc6S,1.15
same,glycan array binding signal (z-score),Fuc(a1-2)Gal(b1-4)GlcNAc,-0.565
same,glycan array binding signal (z-score),[20],1.39
same,glycan array binding signal (z-score),[21],1.5
same,glycan array binding signal (z-score),[22],1.11
same,glycan array binding signal (z-score),[23],0.656
same,glycan array binding signal (z-score),[24],-1.04
same,glycan array binding signal (z-score),[25],0.725
same,glycan array binding signal (z-score),[26],0.654
same,glycan array binding signal (z-score),[27],-0.034
same,glycan array binding signal (z-score),[28],0.339
same,glycan array binding signal (z-score),[29],-0.845
same,glycan array binding signal (z-score),[30],1.89
same,glycan array binding signal (z-score),[31],-0.715

# Rewritten tab-delimited: part of the list above
binder	measurement	setting	value
B1	glycan array binding signal (z-score)	[14]	0.481
same	glycan array binding signal (z-score)	[31]	-0.715
